Reference: patent US20140045713

Sequences of proteins named here, by UniProt entry; tags and fusion partners are left off.
UniProt Q92686, whole entry: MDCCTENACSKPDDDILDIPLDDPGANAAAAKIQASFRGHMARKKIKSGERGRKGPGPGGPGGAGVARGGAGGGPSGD

Tests used:
[1] = molecular target: Neurogranin (NRGN) (Homo sapiens) (UniProt Q92686); test: filter binding; settings: 2'-F pyrimidines (2'-F-C, 2'-F-U) in the selection library, modification of the synthetic RNA not stated, 20 mM Hepes pH 7.4, 150 mM NaCl, 2 mM CaCl2, 0.1% BSA, 37 C, purified recombinant protein, label: 3' biotin
[2] = molecular target: Serum albumin (human albumin) (Homo sapiens) (UniProt P02768); test: filter binding; settings: 2'-F pyrimidines (2'-F-C, 2'-F-U) in the selection library; modification of the synthetic RNA not stated; no signal at any albumin amount; also negative control in pull-down; label: 3' biotin

Row | Sequence | binding result ([1]; minimum protein for dot-blot detection 0.63 pmol with 1 pmol RNA in 20 ul) | binding result [2] | binding result ([1]; minimum protein for dot-blot detection 1.25 pmol with 1 pmol RNA in 20 ul)
1 | UUUUCAUUUUCAUUUUUUUCCAAAUCGAUCCGCCGGACCUUAU [NRGN-A6] | binds | no binding | 
2 | UCUAACGCCUCCCGUAUGUUUUCCUUUUUCCAUUGCGGAU [NRGN-A1] |  | no binding | binds

The exact form of at least one protein or probe is not confirmed. For some of these results: No signal at the amounts used counts as a negative.
